Measurements published in patent US12116573B2, “Targeting ligands for therapeutic compounds” (Arrowhead Pharmaceuticals, Inc., priority 2016, dated 2024).
At least one read-out could not be matched to a standard name with certainty.

Assay: Solubility of targeting ligand phosphoramidite compounds in oligonucleotide synthesis solvent (Example 5)
Format: physicochemical
Settings: dichloromethane (DCM), 0.05M and […]
Excerpt: The compositions were solubilized in dichloromethane (DCM) and dried over sieves.

CC(=O)NC1C(OCCOCCNC(=O)CCC(NC(=O)CCC(NC(=O)CCOCCOCCOCCOCCOP(OCCC#N)C(C(C)C)C(C)C)C(=O)NCCOCCOC2OC(COC(C)=O)C(OC(C)=O)C(OC(C)=O)C2NC(C)=O)C(=O)NCCOCCOC2OC(COC(C)=O)C(OC(C)=O)C(OC(C)=O)C2NC(C)=O)OC(COC(C)=O)C(OC(C)=O)C1OC(C)=O (stereo not shown) [Structure 103d, Tri-NAG-bis-Glu-NH-PEG4 phosphoramidite]
behaviour on solubilization in dichloromethane: gelling issues
